According to patent US20160031955A1 (INSERM INSTITUT NATIONAL DE LA SANT ET DE LA RECHERCHE M …, published 2016):
These are yes or no findings as the source states them, for the method shown. In cells and extracts the contact can be indirect. These calls come from enrichment with a bait or labelling near it, and not all partners need be listed.

Amino acid sequences for entries named in this document (tags omitted). Residues count along the entry.
UniProt O95831, residues 55-613: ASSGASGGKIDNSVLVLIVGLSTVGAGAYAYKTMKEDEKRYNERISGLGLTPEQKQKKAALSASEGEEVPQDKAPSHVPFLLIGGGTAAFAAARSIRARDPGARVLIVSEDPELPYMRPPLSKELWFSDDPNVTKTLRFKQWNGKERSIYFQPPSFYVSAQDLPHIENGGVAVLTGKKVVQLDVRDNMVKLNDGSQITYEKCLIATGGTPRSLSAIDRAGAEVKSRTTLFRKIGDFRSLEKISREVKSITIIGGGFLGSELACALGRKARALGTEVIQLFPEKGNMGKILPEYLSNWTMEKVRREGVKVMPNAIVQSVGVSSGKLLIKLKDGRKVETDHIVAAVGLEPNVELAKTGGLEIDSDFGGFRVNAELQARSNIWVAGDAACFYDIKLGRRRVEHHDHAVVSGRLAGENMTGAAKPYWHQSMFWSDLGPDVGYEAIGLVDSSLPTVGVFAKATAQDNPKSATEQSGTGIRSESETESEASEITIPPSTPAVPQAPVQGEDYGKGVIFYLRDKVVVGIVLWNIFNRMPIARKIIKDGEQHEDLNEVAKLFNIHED

Key:
[1] = molecular target: endogenous AIF (apoptosis inducing factor) contained in human cell lysates (human) (UniProt O95831); assay: immunoprecipitation of AIF, SDS/PAGE, mass spectrometry
[2] = molecular target: endogenous AIF (apoptosis inducing factor) contained in human cell lysates (human) (UniProt O95831); assay: immunoprecipitation of AIF from human cervical cancer cells, mass spectrometry

B1: endogenous human MIA40 isoform 1 (CHCHD4.1) (protein)
chain: MSYCRQEGKDRIIFVTKEDHETPSSAELVADDPNDPYEEHGLILPNGNINWNCPCLGGMASGPCGEQFKSAFSCFHYSTEEIKGSDCVDQFRAMQECMQKYPDLYPQEDEDEEEEREKKPAEQAEETAPIEATATKEEEGSS
In the case of B1, the binding [1] is reported as “binds” and the binding [2] is reported as “binds”.
